Measurements taken from the supplement of paper PMC9877034.
Counter-ions that a name gives are not always drawn. Over roughly 1,000 compounds, “cFRET/donor change relative to DMSO, normalised to beta-lapachone positive control (supercomplex I-IV assembly)” has its median near 0.18; the lowest 2% begin near -1. The list shows a part of the results.

system: C2C12 (NDUFB8-AcGFP / COX8A-DsRed-Monomer FRET reporter); test: cFRET/donor change relative to DMSO, normalised to beta-lapachone positive control (supercomplex I-IV assembly) (fraction of beta-lapachone effect); higher = more respiratory supercomplex assembly; conditions: 40 µM; 24 h
Experimental: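 Cells were treated with 40 uM compound for 24 h and imaged on an IN Cell Analyzer 6000. Corrected FRET was divided by donor signal (cFRET/donor) and measured in two replicate experiments. The score is (mean cFRET/donor of compound - mean DMSO) / (mean beta-lapachone 40 uM - mean DMSO). Compounds flagged for prominent cell death, abnormal morphology or decreased cell number were excluded.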

| SMILES | cFRET/donor change |
| --- | --- |
| C/C=C(/C)C(=O)O[C@H]1C(C)=C2[C@H]([C@@H]1OC(=O)CCCCCCC)[C@@](C)(OC(C)=O)C[C@H](OC(=O)CCC)[C@@]1(O)[C@H]2OC(=O)[C@@]1(C)O [Thapsigargin] | 0.0653 |
| c1ccc2c(c1)OCC(C1=NCCN1)O2 (stereo not drawn) [Idazoxan hydrochloride] | -0.861 |
| CCCN1CCC[C@@H]2Cc3n[nH]cc3C[C@H]21 [(-)-Quinpirole hydrochloride] | -0.238 |
| CC(C)c1cccc(C(C)C)c1O [Propofol] | 0.289 |
| OCc1cnc[nH]1 [4-Imidazolemethanol hydrochloride] | 0.055 |
| O=C(O)CC[N+](=O)[O-] [3-Nitropropionic acid] | 0.571 |
| CN1C[C@H](CNC(=O)OCc2ccccc2)C[C@@H]2c3cccc4c3c(cn4C)C[C@H]21 [Metergoline] | 0.515 |
| CC(C)Oc1cccnc1N(C)C1CCN(Cc2ccccc2)CC1 | 0.414 |
| CCCN(CCC)C1CCc2ccc(O)cc2C1 (racemic) [(±)-7-Hydroxy-DPAT hydrobromide] | 0.268 |
| NCC1(CC(=O)O)CCCCC1 [Gabapentin] | -0.025 |
| CC(O)(CS(=O)(=O)c1ccc(F)cc1)C(=O)Nc1ccc(C#N)c(C(F)(F)F)c1 (stereo not drawn) [Bicalutamide (CDX)] | 0.549 |
| Cc1ncsc1CCCl [Chlormethiazole hydrochloride] | 0.036 |
| CCC1(c2ccc(N)cc2)CCC(=O)NC1=O (racemic) [(±)-p-Aminoglutethimide] | -0.016 |
| O=C(O)c1nn(Cc2ccc(Cl)cc2Cl)c2ccccc12 [Lonidamine] | -0.0272 |
| Cc1o[nH]c(=O)c1CC(N)C(=O)O (racemic) [(±)-AMPA hydrobromide] | 0.0791 |
| CC[C@@H](CO)NC(=O)[C@@H]1C=C2c3cccc4[nH]cc(c34)C[C@H]2N(C)C1 [Methylergonovine maleate] | 0.273 |
| CCC1(C2=NCCN2)Cc2ccccc2O1 (stereo not drawn) [Efaroxan hydrochloride] | 0.439 |
| CCOC(=O)c1ncn2c1[C@@H]1CCCN1C(=O)c1cc(OC)ccc1-2 | 0.212 |
| C[N+]1(C)[C@@H]2CC(OC(=O)[C@H](CO)c3ccccc3)C[C@H]1[C@@H]1O[C@@H]12 (single isomer, unassigned; (-)) [(-)-Scopolamine methyl nitrate] | 0.0188 |
| COc1ccc2c(c1O)-c1cccc3c1[C@@H](C2)N(C)CC3 [R(-)-Apocodeine hydrochloride] | 0.979 |
| O=c1[nH]oc2c1CCNC2 [THIP hydrochloride] | 0.0629 |
| NC(Cc1cc(O)c(O)cc1O)C(=O)O (racemic) [6-Hydroxy-DL-DOPA] | -0.134 |
| CN1CCc2cc(O)cc3c2[C@H]1Cc1ccc(O)c(O)c1-3 [R(-)-2,10,11-Trihydroxyaporphine hybrobromide] | 1.29 |
| Cn1c(CCCC(=O)O)nc2cc(N(CCCl)CCCl)ccc21 [Bendamustine hydrochloride] | -0.232 |

| SMILES | cFRET/donor change |
| --- | --- |
| O=C1CC[C@@]2(O)[C@H]3Cc4ccc(O)c5c4[C@@]2(CCN3CC2CC2)[C@H]1O5 [Naltrexone hydrochloride] | 0.268 |
| CC(=O)[C@H]1CC[C@H]2[C@@H]3CC[C@H]4C[C@H](O)CC[C@]4(C)[C@H]3CC[C@]12C [5alpha-Pregnan-3alpha-ol-20-one] | 0.166 |
| N[C@]1(C(=O)O)CC[C@H](C(=O)O)C1 (racemic) [trans-(±)-ACPD] | 0.0503 |
| CC(NC(C)(C)C)C(=O)c1cccc(Cl)c1 (stereo not drawn) [Bupropion hydrochloride] | 0.231 |
| CN1[C@@H]2C[C@@H](OC(=O)[C@H](CO)c3ccccc3)C[C@H]1[C@@H]1O[C@@H]12 [(-)-Scopolamine hydrobromide] | 0.275 |
| CC(=O)[C@H]1CC[C@H]2[C@@H]3CC[C@H]4C[C@](C)(O)CC[C@]4(C)[C@H]3CC[C@]12C [Ganaxolone] | 0.393 |
| NCC(CC(=O)O)c1ccc(Cl)cc1 (racemic) [(±)-Baclofen] | -0.352 |
| N[C@@H]1C[C@H]1c1ccccc1 [Tranylcypromine hydrochloride] | 0.38 |
| C[C@@H]1O[C@H](C[N+](C)(C)C)C[C@H]1O (racemic) [(±)-Muscarine chloride] | -0.0405 |
| CP(=O)(O)C1=CCNCC1 | -0.0291 |
| NC(=O)c1cc(N2CC2)c([N+](=O)[O-])cc1[N+](=O)[O-] | 0.411 |
| C=CCN1CC[C@]23c4c5ccc(O)c4O[C@H]2C(=O)CC[C@@]3(O)[C@H]1C5 [Naloxone hydrochloride] | 0.241 |
| CN1CC[C@]2(CCN3CCc4c(oc5ccccc45)[C@@H]3C2)N(C)C1=O | 0.551 |
| N#CC(C#N)=Cc1ccc(O)c(O)c1 [Tyrphostin 23] | 0.0664 |
| COc1ccc2[nH]c3c(c2c1)CCNC3 [6-Methoxy-1,2,3,4-tetrahydro-9H-pyrido[3,4b] indole] | -0.133 |
| Cc1cccc(C)c1NC(=O)CN1CCCC1=O [Nefiracetam] | 0.156 |
| NC(=O)CI [Iodoacetamide] | -0.0525 |
| COC(=O)N1CCN(C(=O)Cc2ccc(Cl)c(Cl)c2)C(CN2CCCC2)C1 (stereo not drawn) | -0.0482 |
| CC(C)NC(C)Cc1ccc(I)cc1 (stereo not drawn) [Iofetamine hydrochloride] | 0.596 |
| N=C(NCCC[C@H](N)C(=O)O)N[N+](=O)[O-] [NG-Nitro-L-arginine] | 0.111 |
| CCCN(CCC)C1Cc2cc(OC)c(OC)cc2C1 | 0.0328 |
| CC(=O)O[C@H]1C[C@@H]2CC[C@@H]3[C@H](CC[C@@]4(C)[C@H]3C[C@H]([N+]3(C)CCCCC3)[C@@H]4OC(C)=O)[C@@]2(C)C[C@@H]1[N+]1(C)CCCCC1 [Pancuronium bromide] | -0.202 |
| CN1CCc2cccc(Cl)c2CC1 | 0.279 |
| COC(=O)[C@@H](N)CCCNC(=N)N[N+](=O)[O-] [NG-Nitro-L-arginine methyl ester hydrochloride] | 0.414 |

Three entries from above, bar-delimited.
SMILES | cFRET/donor change
N#CC(C#N)=Cc1ccc(O)c(O)c1 [Tyrphostin 23] | 0.0664
COc1ccc2[nH]c3c(c2c1)CCNC3 [6-Methoxy-1,2,3,4-tetrahydro-9H-pyrido[3,4b] indole] | -0.133
Cc1cccc(C)c1NC(=O)CN1CCCC1=O [Nefiracetam] | 0.156
